These are yes or no findings as the source states them, for the method shown. In cells and extracts the contact can be indirect. Some entries that bind do so weakly or less than the wild type.
Tests used:
Tspan8 (human) [1] = molecular target: T1, Tspan8 (human) (UniProt P19075); experiment: co-IP; Is1-tspan8 cells, surface proteins biotinylated before lysis in Brij97; IP of Tspan8 with TS29.2; half eluted with 1% Triton X100 and the biotinylated proteins recovered on streptavidin beads; blots with TS29.2 (non-reducing) and ECE1 antibody (reducing)
T1 sequence: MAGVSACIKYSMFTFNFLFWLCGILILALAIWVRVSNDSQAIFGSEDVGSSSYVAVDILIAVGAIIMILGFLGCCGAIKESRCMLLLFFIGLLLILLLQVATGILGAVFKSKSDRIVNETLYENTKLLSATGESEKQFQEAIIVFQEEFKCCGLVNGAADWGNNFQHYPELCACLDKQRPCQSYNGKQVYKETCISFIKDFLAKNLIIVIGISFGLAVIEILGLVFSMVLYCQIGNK

Tspan8 (human) [2] = molecular target: T1, Tspan8 (human); experiment: co-IP; Is1-tspan8 cells, 1% Brij97 lysate (30 mM Tris pH 7.4, 150 mM NaCl, 1 mM CaCl2, 1 mM MgCl2), 4 °C; IP with mAb TS29.2 (Tspan8) or TS9 (CD9) and protein G-sepharose; western blot for ECE1

B1: endothelin converting enzyme 1 (ECE1) (enzyme, UniProt P42892 1-770)
chain: MRGVWPPPVSALLSALGMSTYKRATLDEEDLVDSLSEGDAYPNGLQVNFHSPRSGQRCWAARTQVEKRLVVLVVLLAAGLVACLAALGIQYQTRSPSVCLSEACVSVTSSILSSMDPTVDPCHDFFSYACGGWIKANPVPDGHSRWGTFSNLWEHNQAIIKHLLENSTASVSEAERKAQVYYRACMNETRIEELRAKPLMELIERLGGWNITGPWAKDNFQDTLQVVTAHYRTSPFFSVYVSADSKNSNSNVIQVDQSGLGLPSRDYYLNKTENEKVLTGYLNYMVQLGKLLGGGDEEAIRPQMQQILDFETALANITIPQEKRRDEELIYHKVTAAELQTLAPAINWLPFLNTIFYPVEINESEPIVVYDKEYLEQISTLINTTDRCLLNNYMIWNLVRKTSSFLDQRFQDADEKFMEVMYGTKKTCLPRWKFCVSDTENNLGFALGPMFVKATFAEDSKSIATEIILEIKKAFEESLSTLKWMDEETRKSAKEKADAIYNMIGYPNFIMDPKELDKVFNDYTAVPDLYFENAMRFFNFSWRVTADQLRKAPNRDQWSMTPPMVNAYYSPTKNEIVFPAGILQAPFYTRSSPKALNFGGIGVVVGHELTHAFDDQGREYDKDGNLRPWWKNSSVEAFKRQTECMVEQYSNYSVNGEPVNGRHTLGENIADNGGLKAAYRAYQNWVKKNGAEHSLPTLGLTNNQLFFLGFAQVWCSVRTPESSHEGLITDPHSPSRFRVIGSLSNSKEFSEHFRCPPGSPMNPPHKCEVW
- binding (Tspan8 (human) [1]): binds
- binding (Tspan8 (human) [2]): binds

From paper PMC10571763
